# Test results taken from the supplement of paper PMC12889115.
# The other results are listed elsewhere or left out. Values are raw readings; no control value is given beside them.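 First-pass screen: polymyxin B was added at a level that permeabilizes the Salmonella outer membrane while sparing the inner membrane. DMSO wells, with and without polymyxin B, defined maximum growth. Because plates differed from one another, each plate's data were ranked separately and the compounds with the lowest OD600 were carried forward as hits.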
# System: Salmonella enterica serovar Typhimurium SL1344
# Experiment: bacterial growth OD600 after 18 h with compound and polymyxin B; higher = more bacterial growth (less inhibition)
# Conditions: 50 µM, Mueller-Hinton broth
compound,measurement,setting,value
O=C(c1cscn1)N1CCC2(CCCN(CCCc3ccccc3)C2=O)C1 (stereo unspecified),bacterial growth OD600,polymyxin B 1 µg/mL,0.911
CC(C)(CNC(=O)c1cc(COc2ccc3c(c2)OCO3)[nH]n1)N1CCOCC1,bacterial growth OD600,polymyxin B 1 µg/mL,1.13
Cc1nc(C(=O)NCc2c(C)ncc3c2CCN(C(=O)/C(F)=C/c2ccccc2)C3)cs1,bacterial growth OD600,polymyxin B 0.75 µg/mL,0.003
Cc1cc(CNCC2(O)CCCN(Cc3ccccc3F)C2=O)no1 (stereo unspecified),bacterial growth OD600,polymyxin B 1 µg/mL,0.977
CN(Cc1nccs1)C(=O)C1CCCN(c2nc(-c3ccccc3)nc3c2CCC3)C1 (stereo unspecified),bacterial growth OD600,polymyxin B 1 µg/mL,0.769
COc1cccc(OCC(O)CNC2CCN(c3ccc(C(=O)NC4CCCC4)cc3)CC2)c1 (stereo unspecified),bacterial growth OD600,polymyxin B 0.75 µg/mL,0.835
CCCCNC(=O)N1CCC2(CCCN(Cc3cccc(C)c3)C2=O)C1 (stereo unspecified),bacterial growth OD600,polymyxin B 1 µg/mL,0.982
Cn1cc(CCC(=O)N2CCCC(CCc3ccc(F)c(F)c3)C2)cn1 (stereo unspecified),bacterial growth OD600,polymyxin B 0.75 µg/mL,0.714
Cc1cc2nc(N3CCCN(Cc4c(C)nn(C)c4Cl)CC3)nc(C)c2cc1C,bacterial growth OD600,polymyxin B 0.75 µg/mL,0.787
O=C(CSc1ncccn1)NC1CCCN(c2ccc(C(F)(F)F)cn2)C1 (stereo unspecified),bacterial growth OD600,polymyxin B 0.75 µg/mL,0.84
CCC1CN(Cc2ccc3ncccc3c2)Cc2cc(OC)ccc2O1 (stereo unspecified),bacterial growth OD600,polymyxin B 0.75 µg/mL,0.005
CSc1ccccc1N1C(=O)CN(Cc2c(C)n(C)n(-c3ccccc3)c2=O)CC1C (stereo unspecified),bacterial growth OD600,polymyxin B 0.75 µg/mL,0.931
CCOC(=O)C1(Cc2ccccc2C(F)(F)F)CCN(C(=O)c2cc(C(C)=O)n[nH]2)CC1,bacterial growth OD600,polymyxin B 1 µg/mL,0.664
COc1ccc(C(=O)NC2CC2)c(OC2CCN(C3CCSCC3)CC2)c1,bacterial growth OD600,polymyxin B 0.75 µg/mL,0.768
CCC(C)CNC1CCN(c2ccc(C(=O)NCc3ccc4c(c3)OCO4)cc2)CC1 (stereo unspecified),bacterial growth OD600,polymyxin B 0.75 µg/mL,0.728
CCOC(c1ccccc1)c1ccc2c(c1)CN(C(=O)c1noc3c1CCCC3)CCO2 (stereo unspecified),bacterial growth OD600,polymyxin B 0.75 µg/mL,0.009
OCCC1CN(Cc2ccc(F)cc2F)CCN1CC1CCCCC1 (stereo unspecified),bacterial growth OD600,polymyxin B 1 µg/mL,0.694
COC(C(=O)Nc1ccnn1C1CCN(CC2CCCCC2)CC1)c1ccccc1 (stereo unspecified),bacterial growth OD600,polymyxin B 0.75 µg/mL,0.929
OC(Cc1ccccc1)c1ccc2c(c1)CN(Cc1c[nH]c3ccccc13)CCO2 (stereo unspecified),bacterial growth OD600,polymyxin B 0.75 µg/mL,0.737
CC(=O)Nc1cc(C(=O)N2CCOc3ccccc3C2)c2c(c1)nc(C)n2Cc1ccccc1,bacterial growth OD600,polymyxin B 0.75 µg/mL,0.824
Cc1cc(-c2nn(-c3ccccc3F)cc2CN(C)C2CCOC2)c(C)s1 (stereo unspecified),bacterial growth OD600,polymyxin B 1 µg/mL,0.605
COCC1CCN(C(=O)c2ccc3oc(Cc4ccc(Cl)cc4)nc3c2)C1 (stereo unspecified),bacterial growth OD600,polymyxin B 1 µg/mL,0.953
O=C(NCCC(c1ccccc1)c1ccccc1)C1CC12CCN(C(=O)CCn1cncn1)CC2 (stereo unspecified),bacterial growth OD600,polymyxin B 0.75 µg/mL,0.878
COc1cc(CC2(CCC(=O)NC(Cc3ccccc3)c3ccccc3)CCC(=O)N2)ccc1F (stereo unspecified),bacterial growth OD600,polymyxin B 0.75 µg/mL,0.781
COc1ccccc1C1CN(CCNC(=O)C(c2cccnc2)N2CCCC2)Cc2ccccc2O1 (stereo unspecified),bacterial growth OD600,polymyxin B 0.75 µg/mL,0.086
Cc1nc2ccccc2n1Cc1cc(C(=O)N(C)C2CCOC2)n[nH]1 (stereo unspecified),bacterial growth OD600,polymyxin B 1 µg/mL,1.05
COCCC1CCCCN1C(=O)c1csc2nc(-c3ccccc3)cn12 (stereo unspecified),bacterial growth OD600,polymyxin B 1 µg/mL,1.12
O=C(Cc1ccc2c(c1)OCO2)NCCN1Cc2ccccc2OC(c2ccccc2F)C1 (stereo unspecified),bacterial growth OD600,polymyxin B 0.75 µg/mL,0.447
C=CCC(O)(CC=C)CNC1CCN(c2ccc(NC(=O)CCc3ccccc3)cc2)CC1,bacterial growth OD600,polymyxin B 0.75 µg/mL,0.823
O=C(c1coc(COc2cccc(F)c2)n1)N1CCCCCC1,bacterial growth OD600,polymyxin B 1 µg/mL,0.874
CO[C@H]1[C@H](NC(=O)C(C)C)c2ccccc2C12CCN(C(=O)COc1ccc(Cl)cc1)CC2,bacterial growth OD600,polymyxin B 0.75 µg/mL,0.591

# Three structures from above, ordered by SMILES length, falling:
compound,measurement,setting,value
Cc1cc2nc(N3CCCN(Cc4c(C)nn(C)c4Cl)CC3)nc(C)c2cc1C,bacterial growth OD600,polymyxin B 0.75 µg/mL,0.787
Cc1cc(-c2nn(-c3ccccc3F)cc2CN(C)C2CCOC2)c(C)s1 (stereo unspecified),bacterial growth OD600,polymyxin B 1 µg/mL,0.605
COc1ccc(C(=O)NC2CC2)c(OC2CCN(C3CCSCC3)CC2)c1,bacterial growth OD600,polymyxin B 0.75 µg/mL,0.768
